# Reference: PubChem BioAssay AID743446 (Broad Institute, 2014)
# The inconclusive results got no clear call from the source; some entries with a clear call stand among them for comparison. The source made the active and inactive calls. How the calls were made is not given here.
# Assay: HEK293 cell cytotoxicity, dose response, cytotoxicity control, plate reader, cherry-picked samples (AID 743446)
# Conditions: active compounds read low; at 26 µM unless noted
row,SMILES,max activity
1,C=CCc1c(C)nc2cc(-c3ccc(C)cc3)[nH]n2c1=O,inconclusive: -50.6%
2,CN(C)CCCNc1cc(O)c2ncccc2c1,inconclusive: -115% [at 12 µM]
3,Cc1ccc(-c2nnc(-c3ccccc3Br)o2)cc1,inconclusive: 57.3% [at 3 µM]
4,O=C(O)c1c2c(nc3ccccc13)/C(=C/c1ccc(O)cc1)CC2,inactive: 22.6%
5,C[C@H](CO)N1C[C@H](C)[C@@H](CN(C)CC2CCOCC2)Oc2ncc(Br)cc2C1=O,inactive: 4.11%
6,CCOC(=O)C1=CCN(S(=O)(=O)c2ccccc2C)C1c1cccc(C)c1 (stereo not drawn),inconclusive: 91.6% [at 3 µM]
7,CCOC(=O)C(C)N1c2cccc3cccc(c23)S1(=O)=O (stereo not drawn),inconclusive: -15.6% [at 6 µM]
8,N#C[C@@H]1[C@H](c2ccc(C#Cc3cccc(F)c3)cc2)[C@@H](CO)N1C(=O)C1CCCC1,inconclusive: 100% [at 12 µM]
